No constants are given. Whether binding was seen depends on the method and setting. Binding seen in cells or lysates may run through a third protein. These calls come from enrichment with a bait or labelling near it, and not all partners need be listed.
B1: RBM19 (endogenous) (protein, UniProt Q9Y4C8 1-960)
chain: MSRLIVKNLPNGMKEERFRQLFAAFGTLTDCSLKFTKDGKFRKFGFIGFKSEEEAQKAQKHFNKSFIDTSRITVEFCKSFGDPAKPRAWSKHAQKPSQPKQPPKDSTTPEIKKDEKKKKVAGQLEKLKEDTEFQEFLSVHQRRAQAATWANDGLDAEPSKGKSKPASDYLNFDSDSGQESEEEGAGEDLEEEASLEPKAAVQKELSDMDYLKSKMVKAGSSSSSEEEESEDEAVHCDEGSEAEEEDSSATPVLQERDSKGAGQEQGMPAGKKRPPEARAETEKPANQKEPTTCHTVKLRGAPFNVTEKNVMEFLAPLKPVAIRIVRNAHGNKTGYIFVDFSNEEEVKQALKCNREYMGGRYIEVFREKNVPTTKGAPKNTTKSWQGRILGENEEEEDLAESGRLFVRNLPYTSTEEDLEKLFSKYGPLSELHYPIDSLTKKPKGFAFITFMFPEHAVKAYSEVDGQVFQGRMLHVLPSTIKKEASEDASALGSSSYKKKKEAQDKANSASSHNWNTLFMGPNAVADAIAQKYNATKSQVFDHETKGSVAVRVALGETQLVQEVRRFLIDNGVSLDSFSQAAAERSKTVILVKNLPAGTLAAQLQETFGHFGSLGRVLLPEGGITAIVEFLEPLEARKAFRHLAYSKFHHVPLYLEWAPVGVFSSTAPQKKKLQDTPSEPMEKDPAEPETVPDGETPEDENPTEEGADNSSAKMEEEEEEEEEEEESLPGCTLFIKNLNFDTTEEKLKEVFSKVGTVKSCSISKKKNKAGVLLSMGFGFVEYRKPEQAQKALKQLQGHVVDGHKLEVRISERATKPAVTLARKKQVPRKQTTSKILVRNIPFQAHSREIRELFSTFGELKTVRLPKKMTGTGTHRGFGFVDFLTKQDAKRAFNALCHSTHLYGRRLVLEWADSEVTLQALRRKTAAHFHEPPKKKRSVVLDEILEQLEGSDSDSEEQTLQL
B2: RAVER1 (endogenous) (protein, UniProt Q8IY67 1-606)
chain: MAADVSVTHRPPLSPKSGAEVEAGDAAERRAPEEELPPLDPEEIRKRLEHTERQFRNRRKILIRGLPGDVTNQEVHDLLSDYELKYCFVDKYKGTAFVTLLNGEQAEAAINAFHQSRLRERELSVQLQPTDALLCVANLPPSLTQQQFEELVRPFGSLERCFLVYSERTGQSKGYGFAEYMKKDSAARAKSDLLGKPLGPRTLYVHWTDAGQLTPALLHSRCLCVDRLPPGFNDVDALCRALSAVHSPTFCQLACGQDGQLKGFAVLEYETAEMAEEAQQQADGLSLGGSHLRVSFCAPGPPGRSMLAALIAAQATALNRGKGLLPEPNILQLLNNLGPSASLQLLLNPLLHGSAGGKQGLLGAPPAMPLLNGPALSTALLQLALQTQGQKKPGILGDSPLGALQPGAQPANPLLGELPAGGGLPPELPPRRGKPPPLLPSVLGPAGGDREALGLGPPAAQLTPPPAPVGLRGSGLRGPLSHFYSGSPTSYFTSGLQAGLKQSHLSKAIGSSPLGSGEGLLGLSPGPNGHSHLLKVRAGGGDMQGWEAPAPQRPLTRPALPSVSRPHWAARNAALPTCCPRPSPAQKAAMWASTPRASAATTRTPT
B3: KNSTRN (endogenous) (protein, UniProt Q9Y448 1-316)
chain: MAAPEAPPLDRVFRTTWLSTECDSHPLPPSYRKFLFETQAADLAGGTTVAAGNLLNESEKDCGQDRRAPGVQPCRLVTMTSVVKTVYSLQPPSALSGGQPADTQTRATSKSLLPVRSKEVDVSKQLHSGGPENDVTKITKLRRENGQMKATDTATRRNVRKGYKPLSKQKSEEELKDKNQLLEAVNKQLHQKLTETQGELKDLTQKVELLEKFRDNCLAILESKGLDPALGSETLASRQESTTDHMDSMLLLETLQEELKLFNETAKKQMEELQALKVKLEMKEERVRFLEQQTLCNNQVNDLTTALKEMEQLLEM
B4: RBM42 (endogenous) (protein, UniProt Q9BTD8 1-480)
chain: MAGAGPAPGLPGAGGPVVPGPGAGIPGKSGEERLKEMEAEMALFEQEVLGAPVPGIPTAVPAVPTVPTVPTVEAMQVPAAPVIRPIIATNTYQQVQQTLEARAAAAATVVPPMVGGPPFVGPVGFGPGDRSHLDSPEAREAMFLRRAAVAPQRAPILRPAFVPHVLQRADSALSSAAAGPRPMALRPPHQALVGPPLPGPPGPPMMLPPMARAPGPPLGSMAALRPPLEEPAAPRELGLGLGLGLKEKEEAVVAAAAGLEEASAAVAVGAGGAPAGPAVIGPSLPLALAMPLPEPEPLPLPLEVVRGLLPPLRIPELLSLRPRPRPPRPEPPPGLMALEVPEPLGEDKKKGKPEKLKRCIRTAAGSSWEDPSLLEWDADDFRIFCGDLGNEVNDDILARAFSRFPSFLKAKVIRDKRTGKTKGYGFVSFKDPSDYVRAMREMNGKYVGSRPIKLRKSMWKDRNLDVVRKKQKEKKKLGLR
B5: E3 ubiquitin ligase RNF123 (protein, UniProt Q5XPI4 1-1314)
chain: MASKGAGMSFSRKSYRLTSDAEKSRVTGIVQEKLLNDYLNRIFSSSEHAPPAATSRKPLNFQNLPEHLDQLLQVDNEEEESQGQVEGRLGPSTVVLDHTGGFEGLLLVDDDLLGVIGHSNFGTIRSTTCVYKGKWLYEVLISSQGLMQIGWCTISCRFNQEEGVGDTHNSYAYDGNRVRKWNVTTTNYGKAWAAGDIVSCLIDLDDGTLSFCLNGVSLGTAFENLSRGLGMAYFPAISLSFKESVAFNFGSRPLRYPVAGYRPLQDPPSADLVRAQRLLGCFRAVLSVELDPVEGRLLDKESSKWRLRGQPTVLLTLAHIFHHFAPLLRKVYLVEAVLMSFLLGIVEKGTPTQAQSVVHQVLDLLWLFMEDYEVQDCLKQLMMSLLRLYRFSPIVPDLGLQIHYLRLTIAILRHEKSRKFLLSNVLFDVLRSVVFFYIKSPLRVEEAGLQELIPTTWWPHCSSREGKESTEMKEETAEERLRRRAYERGCQRLRKRIEVVEELQVQILKLLLDNKDDNGGEASRYIFLTKFRKFLQENASGRGNMPMLCPPEYMVCFLHRLISALRYYWDEYKASNPHASFSEEAYIPPQVFYNGKVDYFDLQRLGGLLSHLRKTLKDDLASKANIVIDPLELQSTAMDDLDEDEEPAPAMAQRPMQALAVGGPLPLPRPGWLSSPTLGRANRFLSTAAVSLMTPRRPLSTSEKVKVRTLSVEQRTREDIEGSHWNEGLLLGRPPEEPEQPLTENSLLEVLDGAVMMYNLSVHQQLGKMVGVSDDVNEYAMALRDTEDKLRRCPKRRKDILAELTKSQKVFSEKLDHLSRRLAWVHATVYSQEKMLDIYWLLRVCLRTIEHGDRTGSLFAFMPEFYLSVAINSYSALKNYFGPVHSMEELPGYEETLTRLAAILAKHFADARIVGTDIRDSLMQALASYVCYPHSLRAVERIPEEQRIAMVRNLLAPYEQRPWAQTNWILVRLWRGCGFGYRYTRLPHLLKTKLEDANLPSLQKPCPSTLLQQHMADLLQQGPDVAPSFLNSVLNQLNWAFSEFIGMIQEIQQAAERLERNFVDSRQLKVCATCFDLSVSLLRVLEMTITLVPEIFLDWTRPTSEMLLRRLAQLLNQVLNRVTAERNLFDRVVTLRLPGLESVDHYPILVAVTGILVQLLVRGPASEREQATSVLLADPCFQLRSICYLLGQPEPPAPGTALPAPDRKRFSLQSYADYISADELAQVEQMLAHLTSASAQAAAASLPTSEEDLCPICYAHPISAVFQPCGHKSCKACINQHLMNNKDCFFCKTTIVSVEDWEKGANTSTTSSAA
B6: MNAT (protein, UniProt P51948 1-309)
chain: MDDQGCPRCKTTKYRNPSLKLMVNVCGHTLCESCVDLLFVRGAGNCPECGTPLRKSNFRVQLFEDPTVDKEVEIRKKVLKIYNKREEDFPSLREYNDFLEEVEEIVFNLTNNVDLDNTKKKMEIYQKENKDVIQKNKLKLTREQEELEEALEVERQENEQRRLFIQKEEQLQQILKRKNKQAFLDELESSDLPVALLLAQHKDRSTQLEMQLEKPKPVKPVTFSTGIKMGQHISLAPIHKLEEALYEYQPLQIETYGPHVPELEMLGRLGYLNHVRAASPQDLAGGYTSSLACHRALQDAFSGLFWQPS
B7: RFC1 (protein, UniProt P35251 1-1148)
chain: MDIRKFFGVIPSGKKLVSETVKKNEKTKSDEETLKAKKGIKEIKVNSSRKEDDFKQKQPSKKKRIIYDSDSESEETLQVKNAKKPPEKLPVSSKPGKISRQDPVTYISETDEEDDFMCKKAASKSKENGRSTNSHLGTSNMKKNEENTKTKNKPLSPIKLTPTSVLDYFGTGSVQRSNKKMVASKRKELSQNTDESGLNDEAIAKQLQLDEDAELERQLHEDEEFARTLAMLDEEPKTKKARKDTEAGETFSSVQANLSKAEKHKYPHKVKTAQVSDERKSYSPRKQSKYESSKESQQHSKSSADKIGEVSSPKASSKLAIMKRKEESSYKEIEPVASKRKENAIKLKGETKTPKKTKSSPAKKESVSPEDSEKKRTNYQAYRSYLNREGPKALGSKEIPKGAENCLEGLIFVITGVLESIERDEAKSLIERYGGKVTGNVSKKTNYLVMGRDSGQSKSDKAAALGTKIIDEDGLLNLIRTMPGKKSKYEIAVETEMKKESKLERTPQKNVQGKRKISPSKKESESKKSRPTSKRDSLAKTIKKETDVFWKSLDFKEQVAEETSGDSKARNLADDSSENKVENLLWVDKYKPTSLKTIIGQQGDQSCANKLLRWLRNWQKSSSEDKKHAAKFGKFSGKDDGSSFKAALLSGPPGVGKTTTASLVCQELGYSYVELNASDTRSKSSLKAIVAESLNNTSIKGFYSNGAASSVSTKHALIMDEVDGMAGNEDRGGIQELIGLIKHTKIPIICMCNDRNHPKIRSLVHYCFDLRFQRPRVEQIKGAMMSIAFKEGLKIPPPAMNEIILGANQDIRQVLHNLSMWCARSKALTYDQAKADSHRAKKDIKMGPFDVARKVFAAGEETAHMSLVDKSDLFFHDYSIAPLFVQENYIHVKPVAAGGDMKKHLMLLSRAADSICDGDLVDSQIRSKQNWSLLPAQAIYASVLPGELMRGYMTQFPTFPSWLGKHSSTGKHDRIVQDLALHMSLRTYSSKRTVNMDYLSLLRDALVQPLTSQGVDGVQDVVALMDTYYLMKEDFENIMEISSWGGKPSPFSKLDPKVKAAFTRAYNKEAHLTPYSLQAIKASRHSTSPSLDSEYNEELNEDDSQSDEKDQDAIETDAMIKKKTKSSKPSKPEKDKEPRKGKGKSSKK

By UniProt entry, the sequences of proteins in these tests, tags left out. Residues count along the entry.
UniProt O00232: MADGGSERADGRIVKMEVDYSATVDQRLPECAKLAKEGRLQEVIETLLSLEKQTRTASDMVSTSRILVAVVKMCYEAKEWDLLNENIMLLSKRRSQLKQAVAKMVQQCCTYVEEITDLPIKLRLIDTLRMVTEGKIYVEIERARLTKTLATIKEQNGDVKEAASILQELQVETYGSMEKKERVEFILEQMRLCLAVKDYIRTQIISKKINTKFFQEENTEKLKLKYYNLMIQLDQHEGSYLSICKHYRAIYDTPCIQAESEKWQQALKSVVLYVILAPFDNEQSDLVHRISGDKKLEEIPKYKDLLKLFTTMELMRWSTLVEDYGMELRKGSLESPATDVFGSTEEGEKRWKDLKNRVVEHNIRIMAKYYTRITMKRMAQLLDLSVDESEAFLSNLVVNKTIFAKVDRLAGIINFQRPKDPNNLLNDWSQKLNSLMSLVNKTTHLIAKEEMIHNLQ
UniProt Q9UNM6: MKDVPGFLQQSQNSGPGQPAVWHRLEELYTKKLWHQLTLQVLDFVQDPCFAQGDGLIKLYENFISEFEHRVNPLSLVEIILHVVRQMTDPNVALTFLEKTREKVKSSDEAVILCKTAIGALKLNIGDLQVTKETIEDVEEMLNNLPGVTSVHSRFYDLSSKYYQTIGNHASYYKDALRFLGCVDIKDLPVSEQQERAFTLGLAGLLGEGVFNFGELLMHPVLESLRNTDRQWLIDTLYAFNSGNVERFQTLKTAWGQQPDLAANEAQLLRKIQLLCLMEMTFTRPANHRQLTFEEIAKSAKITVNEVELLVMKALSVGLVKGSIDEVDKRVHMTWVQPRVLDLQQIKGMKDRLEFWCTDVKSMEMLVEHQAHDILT
UniProt P68400: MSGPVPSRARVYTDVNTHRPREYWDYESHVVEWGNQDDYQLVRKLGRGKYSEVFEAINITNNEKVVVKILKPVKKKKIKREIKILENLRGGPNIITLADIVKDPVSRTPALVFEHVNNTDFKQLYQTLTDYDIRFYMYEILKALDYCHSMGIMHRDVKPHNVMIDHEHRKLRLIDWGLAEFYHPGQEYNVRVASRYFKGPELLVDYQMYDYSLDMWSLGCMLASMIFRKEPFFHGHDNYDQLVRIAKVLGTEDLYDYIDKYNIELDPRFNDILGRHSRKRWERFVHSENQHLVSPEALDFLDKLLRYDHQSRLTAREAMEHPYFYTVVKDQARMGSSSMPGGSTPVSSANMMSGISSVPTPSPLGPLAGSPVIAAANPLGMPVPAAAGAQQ
UniProt Q8WZA1: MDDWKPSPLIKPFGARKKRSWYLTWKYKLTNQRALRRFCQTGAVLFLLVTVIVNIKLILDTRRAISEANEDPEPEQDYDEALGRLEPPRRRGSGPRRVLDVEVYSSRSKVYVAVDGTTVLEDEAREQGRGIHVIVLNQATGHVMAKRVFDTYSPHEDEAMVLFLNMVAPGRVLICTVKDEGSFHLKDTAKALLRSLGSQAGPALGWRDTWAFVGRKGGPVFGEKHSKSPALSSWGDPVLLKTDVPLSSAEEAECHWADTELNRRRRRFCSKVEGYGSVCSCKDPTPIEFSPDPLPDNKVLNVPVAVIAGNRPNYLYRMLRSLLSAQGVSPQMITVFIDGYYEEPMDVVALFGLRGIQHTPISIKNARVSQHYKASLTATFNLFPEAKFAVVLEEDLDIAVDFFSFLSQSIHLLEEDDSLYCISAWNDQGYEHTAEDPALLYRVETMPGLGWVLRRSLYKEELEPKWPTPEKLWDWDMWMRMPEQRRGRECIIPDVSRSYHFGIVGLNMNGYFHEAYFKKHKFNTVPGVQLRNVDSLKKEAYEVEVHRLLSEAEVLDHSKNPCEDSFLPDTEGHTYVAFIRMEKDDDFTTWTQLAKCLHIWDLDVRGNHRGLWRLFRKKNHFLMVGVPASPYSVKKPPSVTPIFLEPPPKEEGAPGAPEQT
UniProt O96017: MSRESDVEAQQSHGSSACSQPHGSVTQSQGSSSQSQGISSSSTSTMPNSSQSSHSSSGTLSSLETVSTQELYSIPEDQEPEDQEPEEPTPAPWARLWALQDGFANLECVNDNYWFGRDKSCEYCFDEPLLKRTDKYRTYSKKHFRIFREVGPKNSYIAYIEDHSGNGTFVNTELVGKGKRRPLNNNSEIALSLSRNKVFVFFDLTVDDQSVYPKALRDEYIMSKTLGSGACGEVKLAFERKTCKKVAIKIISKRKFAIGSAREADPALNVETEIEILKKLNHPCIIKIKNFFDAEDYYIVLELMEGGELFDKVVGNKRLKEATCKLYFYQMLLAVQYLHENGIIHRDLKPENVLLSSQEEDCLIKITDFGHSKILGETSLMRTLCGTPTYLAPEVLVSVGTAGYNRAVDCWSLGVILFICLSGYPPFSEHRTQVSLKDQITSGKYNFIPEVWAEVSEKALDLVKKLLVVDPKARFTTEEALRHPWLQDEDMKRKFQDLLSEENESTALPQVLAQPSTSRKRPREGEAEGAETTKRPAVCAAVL
UniProt Q13526: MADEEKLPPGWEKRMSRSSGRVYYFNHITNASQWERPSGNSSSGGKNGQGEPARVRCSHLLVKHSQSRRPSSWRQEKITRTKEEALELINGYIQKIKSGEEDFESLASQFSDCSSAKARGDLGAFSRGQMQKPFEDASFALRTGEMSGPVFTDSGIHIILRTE
UniProt P13612, residues 34-1032: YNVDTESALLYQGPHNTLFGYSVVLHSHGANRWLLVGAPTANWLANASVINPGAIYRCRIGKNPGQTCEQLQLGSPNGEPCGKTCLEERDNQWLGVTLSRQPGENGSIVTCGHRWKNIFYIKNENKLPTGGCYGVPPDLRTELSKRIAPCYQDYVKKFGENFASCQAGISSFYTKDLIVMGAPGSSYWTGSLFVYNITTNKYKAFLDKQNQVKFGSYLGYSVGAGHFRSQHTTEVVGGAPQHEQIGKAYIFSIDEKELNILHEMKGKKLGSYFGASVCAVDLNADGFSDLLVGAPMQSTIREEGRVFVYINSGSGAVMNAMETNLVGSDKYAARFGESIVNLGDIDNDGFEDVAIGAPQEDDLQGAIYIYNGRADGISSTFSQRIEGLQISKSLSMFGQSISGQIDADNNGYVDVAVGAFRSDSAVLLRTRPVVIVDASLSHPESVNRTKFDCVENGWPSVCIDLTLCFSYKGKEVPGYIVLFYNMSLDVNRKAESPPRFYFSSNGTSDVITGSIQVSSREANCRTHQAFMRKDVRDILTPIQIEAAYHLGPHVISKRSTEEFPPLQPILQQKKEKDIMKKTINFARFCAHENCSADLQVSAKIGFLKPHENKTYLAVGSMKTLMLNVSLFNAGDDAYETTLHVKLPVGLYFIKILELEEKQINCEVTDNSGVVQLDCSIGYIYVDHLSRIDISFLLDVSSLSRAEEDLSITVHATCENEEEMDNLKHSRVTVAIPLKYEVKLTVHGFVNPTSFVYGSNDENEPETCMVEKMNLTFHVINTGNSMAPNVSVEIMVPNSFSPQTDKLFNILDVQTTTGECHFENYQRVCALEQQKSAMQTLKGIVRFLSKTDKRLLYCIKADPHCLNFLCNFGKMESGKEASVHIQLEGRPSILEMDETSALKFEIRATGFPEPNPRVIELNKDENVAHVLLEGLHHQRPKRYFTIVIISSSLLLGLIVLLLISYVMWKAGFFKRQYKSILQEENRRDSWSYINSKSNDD

Target: SARS-CoV-2 ORF9B with C-terminal Twin-Strep tag (SARS-CoV-2) (UniProt P0DTD2)
Test: proximity labelling

Question: “SQSTM1 (endogenous) (from UniProt Q13501 1-440)” was tested. Which binding did it give?
Answer: binds

Question: “proteasomal subunit PSMD12 (from UniProt O00232 1-456)” was tested. Which binding did it give?
Answer: binds

Question: How did the binding turn out when “proteasomal subunit PSMD13 (from UniProt Q9UNM6 1-376)” was run?
Answer: binds

Question: “casein kinase CSNK2A1 (from UniProt P68400 1-391)” was tested. Which binding did it give?
Answer: binds

Question: “glycosyltransferase POMGNT1 (from UniProt Q8WZA1 1-660)” was tested. Which binding did it give?
Answer: binds

Question: Which binding does the source give for “DNA damage checkpoint kinase CHEK2 (from UniProt O96017 1-543)” here?
Answer: binds

Question: For B1, which binding is on record?
Answer: binds

Question: Which binding does the source give for B2 here?
Answer: binds

Question: How did the binding turn out when B3 was run?
Answer: binds

Question: With B4 as the molecule, how does the binding read?
Answer: binds

Question: How did the binding turn out when B5 was run?
Answer: binds

Target: endogenous PIN1 with a Twin-Strep tag inserted at the native locus (human (endogenous in HEK293T)) (UniProt Q13526)
Test: proximity labelling; APPLE-MS on lysate of HEK293T knock-in cells with Twin-Strep-tagged endogenous PIN1; SA-PupE, PafA12KR, ATP; 8 M urea, biotin agarose, label-free MS

Question: Which binding does the source give for ITGA4 (from UniProt P13612 34-1032) here?
Answer: binds

Target: endogenous PIN1 with a Twin-Strep tag inserted at the native locus (human (endogenous in HEK293T)) (UniProt Q13526)
Test: as above
Remark: another data set of the same source

Question: How did the binding turn out when B6 was run?
Answer: binds

Question: How did the binding turn out when B7 was run?
Answer: binds

From PMC12539243
